This is one part of the list.
Columns and labels:
Test in all cases: glycan array binding signal (z-score within array); higher = stronger binding
Settings in all cases: glycan notation: IUPAC condensed, linker removed
[1] = target: GlcNAc(a1-6)Gal(b1-4)GlcNAc
In short: (§1)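 Glycan array data were curated from 3228 arrays in the Consortium for Functional Glycomics database and kept only where the protein sequence was available. Glycan names were converted to IUPAC-condensed notation, and columns mapping to the same glycan were averaged. The binding signal is a within-array Z-score, averaged across arrays of the same protein sequence at different concentrations or buffers and across linkers. Negative Z-scores can be read as non-binding.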

[2] = target: GlcNAc(b1-2)Gal(b1-3)GalNAc
In short: as §1

[3] = target: GlcNAc(b1-2)Man(a1-3)[GlcNAc(b1-2)Man(a1-6)]Man(b1-4)GlcNAc(b1-4)GlcNAc
In short: as §1

[4] = target: GlcNAc(b1-2)Man(a1-3)[GlcNAc(b1-2)Man(a1-6)]Man(b1-4)GlcNAc(b1-4)[Fuc(a1-6)]GlcNAc
In short: as §1

[5] = target: GlcNAc(b1-2)Man(a1-3)[GlcNAc(b1-4)][GlcNAc(b1-2)Man(a1-6)]Man(b1-4)GlcNAc(b1-4)GlcNAc
In short: as §1

[6] = target: GlcNAc(b1-2)Man(a1-3)[GlcNAc(b1-4)][GlcNAc(b1-2)Man(a1-6)]Man(b1-4)GlcNAc(b1-4)[Fuc(a1-6)]GlcNAc
In short: as §1

[7] = target: GlcNAc(b1-2)[GlcNAc(b1-4)]Man(a1-3)[GlcNAc(b1-2)Man(a1-6)]Man(b1-4)GlcNAc(b1-4)GlcNAc
In short: as §1

[8] = target: GlcNAc(b1-2)[GlcNAc(b1-4)]Man(a1-3)[GlcNAc(b1-4)][GlcNAc(b1-2)Man(a1-6)]Man(b1-4)GlcNAc(b1-4)GlcNAc
In short: as §1

[9] = target: GlcNAc(b1-2)[GlcNAc(b1-4)]Man(a1-3)[GlcNAc(b1-4)][GlcNAc(b1-2)[GlcNAc(b1-6)]Man(a1-6)]Man(b1-4)GlcNAc(b1-4)GlcNAc
In short: as §1

[10] = target: GlcNAc(b1-2)[GlcNAc(b1-4)]Man(a1-3)[GlcNAc(b1-4)][GlcNAc(b1-2)[GlcNAc(b1-6)]Man(a1-6)]Man(b1-4)GlcNAc(b1-4)[Fuc(a1-6)]GlcNAc
In short: as §1

[11] = target: GlcNAc(b1-2)[GlcNAc(b1-6)]Man(a1-6)[GlcNAc(b1-2)Man(a1-3)]Man(b1-4)GlcNAc(b1-4)GlcNAc
In short: as §1

[12] = target: GlcNAc(b1-2)[GlcNAc(b1-6)]Man(a1-6)[GlcNAc(b1-2)Man(a1-3)]Man(b1-4)GlcNAc(b1-4)[Fuc(a1-6)]GlcNAc
In short: as §1

[13] = target: GlcNAc(b1-2)[GlcNAc(b1-6)]Man(a1-6)[GlcNAc(b1-4)][GlcNAc(b1-2)Man(a1-3)]Man(b1-4)GlcNAc(b1-4)GlcNAc
In short: as §1

[14] = target: GlcNAc(b1-3)Fuc
In short: as §1

[15] = target: GlcNAc(b1-3)Gal
In short: as §1

[16] = target: GlcNAc(b1-3)Gal(b1-3)GalNAc
In short: as §1

[17] = target: GlcNAc(b1-3)Gal(b1-4)Glc
In short: as §1

[18] = target: GlcNAc(b1-3)Gal(b1-4)GlcNAc
In short: as §1

[19] = target: GlcNAc(b1-3)Gal(b1-4)GlcNAc(b1-2)Man(a1-3)[GlcNAc(b1-3)Gal(b1-4)GlcNAc(b1-2)Man(a1-6)]Man(b1-4)GlcNAc(b1-4)GlcNAc
In short: as §1

[20] = target: GlcNAc(b1-3)Gal(b1-4)GlcNAc(b1-2)Man(a1-3)[GlcNAc(b1-3)Gal(b1-4)GlcNAc(b1-2)Man(a1-6)]Man(b1-4)GlcNAc(b1-4)[Fuc(a1-6)]GlcNAc
In short: as §1

[21] = target: GlcNAc(b1-3)Gal(b1-4)GlcNAc(b1-2)[GlcNAc(b1-3)Gal(b1-4)GlcNAc(b1-6)]Man(a1-6)[GlcNAc(b1-3)Gal(b1-4)GlcNAc(b1-2)Man(a1-3)]Man(b1-4)GlcNAc(b1-4)GlcNAc
In short: as §1

[22] = target: GlcNAc(b1-3)Gal(b1-4)GlcNAc(b1-3)Gal(b1-4)GlcNAc
In short: as §1

[23] = target: GlcNAc(b1-3)Gal(b1-4)GlcNAc(b1-3)Gal(b1-4)GlcNAc(b1-2)Man(a1-3)[GlcNAc(b1-3)Gal(b1-4)GlcNAc(b1-3)Gal(b1-4)GlcNAc(b1-2)Man(a1-6)]Man(b1-4)GlcNAc(b1-4)GlcNAc
In short: as §1

[24] = target: GlcNAc(b1-3)Gal(b1-4)GlcNAc(b1-3)Gal(b1-4)GlcNAc(b1-2)Man(a1-3)[GlcNAc(b1-3)Gal(b1-4)GlcNAc(b1-3)Gal(b1-4)GlcNAc(b1-2)Man(a1-6)]Man(b1-4)GlcNAc(b1-4)[Fuc(a1-6)]GlcNAc
In short: as §1

[25] = target: GlcNAc(b1-3)Gal(b1-4)GlcNAc(b1-3)Gal(b1-4)GlcNAc(b1-2)[GlcNAc(b1-3)Gal(b1-4)GlcNAc(b1-3)Gal(b1-4)GlcNAc(b1-6)]Man(a1-6)[GlcNAc(b1-3)Gal(b1-4)GlcNAc(b1-3)Gal(b1-4)GlcNAc(b1-2)Man(a1-3)]Man(b1-4)GlcNAc(b1-4)[Fuc(a1-6)]GlcNAc
In short: as §1

[26] = target: GlcNAc(b1-3)Gal(b1-4)GlcNAc(b1-3)Gal(b1-4)GlcNAc(b1-3)Gal(b1-4)GlcNAc(b1-2)Man(a1-3)[GlcNAc(b1-3)Gal(b1-4)GlcNAc(b1-3)Gal(b1-4)GlcNAc(b1-3)Gal(b1-4)GlcNAc(b1-2)Man(a1-6)]Man(b1-4)GlcNAc(b1-4)GlcNAc
In short: as §1

[27] = target: GlcNAc(b1-3)Gal(b1-4)GlcNAc(b1-3)Gal(b1-4)GlcNAc(b1-3)Gal(b1-4)GlcNAc(b1-2)Man(a1-3)[GlcNAc(b1-3)Gal(b1-4)GlcNAc(b1-3)Gal(b1-4)GlcNAc(b1-3)Gal(b1-4)GlcNAc(b1-2)Man(a1-6)]Man(b1-4)GlcNAc(b1-4)[Fuc(a1-6)]GlcNAc
In short: as §1

[28] = target: GlcNAc(b1-3)Gal(b1-4)GlcNAc(b1-3)Gal(b1-4)GlcNAc(b1-3)Gal(b1-4)GlcNAc(b1-2)[GlcNAc(b1-3)Gal(b1-4)GlcNAc(b1-3)Gal(b1-4)GlcNAc(b1-3)Gal(b1-4)GlcNAc(b1-6)]Man(a1-6)[GlcNAc(b1-3)Gal(b1-4)GlcNAc(b1-3)Gal(b1-4)GlcNAc(b1-3)Gal(b1-4)GlcNAc(b1-2)Man(a1-3)]Man(b1-4)GlcNAc(b1-4)[Fuc(a1-6)]GlcNAc
In short: as §1

[29] = target: GlcNAc(b1-3)Gal(b1-4)GlcNAc(b1-3)Gal(b1-4)GlcNAc(b1-3)Gal(b1-4)GlcNAc(b1-3)Gal(b1-4)GlcNAc(b1-2)Man(a1-3)[GlcNAc(b1-3)Gal(b1-4)GlcNAc(b1-3)Gal(b1-4)GlcNAc(b1-3)Gal(b1-4)GlcNAc(b1-3)Gal(b1-4)GlcNAc(b1-2)Man(a1-6)]Man(b1-4)GlcNAc(b1-4)GlcNAc
In short: as §1

[30] = target: GlcNAc(b1-3)Gal(b1-4)GlcNAc(b1-3)Gal(b1-4)GlcNAc(b1-3)Gal(b1-4)GlcNAc(b1-3)Gal(b1-4)GlcNAc(b1-2)Man(a1-3)[GlcNAc(b1-3)Gal(b1-4)GlcNAc(b1-3)Gal(b1-4)GlcNAc(b1-3)Gal(b1-4)GlcNAc(b1-3)Gal(b1-4)GlcNAc(b1-2)Man(a1-6)]Man(b1-4)GlcNAc(b1-4)[Fuc(a1-6)]GlcNAc
In short: as §1

[31] = target: GlcNAc(b1-3)Gal(b1-4)GlcNAc(b1-3)Gal(b1-4)GlcNAc(b1-3)Gal(b1-4)GlcNAc(b1-3)Gal(b1-4)GlcNAc(b1-2)[GlcNAc(b1-3)Gal(b1-4)GlcNAc(b1-3)Gal(b1-4)GlcNAc(b1-3)Gal(b1-4)GlcNAc(b1-3)Gal(b1-4)GlcNAc(b1-6)]Man(a1-6)[GlcNAc(b1-3)Gal(b1-4)GlcNAc(b1-3)Gal(b1-4)GlcNAc(b1-3)Gal(b1-4)GlcNAc(b1-3)Gal(b1-4)GlcNAc(b1-2)Man(a1-3)]Man(b1-4)GlcNAc(b1-4)[Fuc(a1-6)]GlcNAc
In short: as §1

[32] = target: GlcNAc(b1-3)Gal(b1-4)GlcNAc(b1-3)Gal(b1-4)GlcNAc(b1-3)GalNAc
In short: as §1

[33] = target: GlcNAc(b1-3)Gal(b1-4)GlcNAc(b1-3)GalNAc
In short: as §1

[34] = target: GlcNAc(b1-3)Gal(b1-4)GlcNAc(b1-3)[GlcNAc(b1-3)Gal(b1-4)GlcNAc(b1-3)]GalNAc
In short: as §1

[35] = target: GlcNAc(b1-3)Gal(b1-4)GlcNAc(b1-6)[Gal(b1-3)]GalNAc
In short: as §1

[36] = target: GlcNAc(b1-3)Gal(b1-4)GlcNAc(b1-6)[GlcNAc(b1-3)Gal(b1-3)]GalNAc
In short: as §1

[37] = target: GlcNAc(b1-3)Gal(b1-4)GlcNAc(b1-6)[GlcNAc(b1-3)]Gal(b1-4)GlcNAc
In short: as §1

B1: ERGIC1-EDTA (Homo sapiens), Q969X5 (protein)
chain: MKFLVNVALVFMVVYISYIYAAAHMHHHHHHDYDIPTTENLYFQGSEVVNELYVDDPDKDSGGKIDVSLNISLPNLHCELVGLDIQDEMGRHEVGHIDNSMKIPLNNGAGCRFEGQFSINKVPGNFHVSTHSATAQPQNPDMTHVIHKLSFGDTLQVQNIHGAFNALGGADRLTSNPLASHDYILKIVPTVYEDKSGKQRYSYQYTVANKEYVAYSHTGRIIPAIWFRYDLSPITVKYTE
[1]
  glycan array binding signal (z-score): -0.295
[2]
  glycan array binding signal (z-score): -0.315
[3]
  glycan array binding signal (z-score): -1.03
[4]
  glycan array binding signal (z-score): 1.96
[5]
  glycan array binding signal (z-score): 0.026
[6]
  glycan array binding signal (z-score): 0.562
[7]
  glycan array binding signal (z-score): -0.303
[8]
  glycan array binding signal (z-score): -0.246
[9]
  glycan array binding signal (z-score): 0.317
[10]
  glycan array binding signal (z-score): -0.379
[11]
  glycan array binding signal (z-score): -0.245
[12]
  glycan array binding signal (z-score): 0.76
[13]
  glycan array binding signal (z-score): 0.336
[14]
  glycan array binding signal (z-score): 1.05
[15]
  glycan array binding signal (z-score): -0.563
[16]
  glycan array binding signal (z-score): 0.03
[17]
  glycan array binding signal (z-score): 0.013
[18]
  glycan array binding signal (z-score): 0.319
[19]
  glycan array binding signal (z-score): 0.263
[20]
  glycan array binding signal (z-score): 1.59
[21]
  glycan array binding signal (z-score): 0.433
[22]
  glycan array binding signal (z-score): -0.266
[23]
  glycan array binding signal (z-score): 1.57
[24]
  glycan array binding signal (z-score): 0.799
[25]
  glycan array binding signal (z-score): 1.08
[26]
  glycan array binding signal (z-score): -0.022
[27]
  glycan array binding signal (z-score): 2.52
[28]
  glycan array binding signal (z-score): 1.3
[29]
  glycan array binding signal (z-score): 0.044
[30]
  glycan array binding signal (z-score): -0.155
[31]
  glycan array binding signal (z-score): 1.12
[32]
  glycan array binding signal (z-score): 0.085
[33]
  glycan array binding signal (z-score): 0.446
[34]
  glycan array binding signal (z-score): -0.179
[35]
  glycan array binding signal (z-score): 0.078
[36]
  glycan array binding signal (z-score): 0.825
[37]
  glycan array binding signal (z-score): -0.003

From the supplement of paper PMC8728848
